# Measured values: the supplement of paper PMC8728848
# This is one part of the list.
# B1: PX14343F-bfa-562-20-562 (Bacteroides fragilis) (protein)
# chain: CDDFLDSFPQDTVTNENFWKSKEDADKVLVDIYASLLPKDAIFFDEAMSDNAYLVWDWWGGAQQVANGSYTTSGEIPTNRWNGSYEVIRKCWFLLEGIEKIEDISEQDKNKIIGETYFMLAYNYYVLTSYFGDVPLVTKTLAIPESKQLVRTPKAEVVDYAINKLKEAAVMLEGLSQEKGRVTADACRFLIARMYLYNGDYSNVLETVKLLEGKYQLYREGDTPYEDLFSGVAENSCEVILSVVCDKRVGEIYTSHGGNGIMLLKGITGEDPYRGVTPSGSLVDAYPMADGRLIHEAGSSYDPKKPYEGRDPRFYQSIVYPTGQIKYLDVETGTVKERLYDPEDPTTVPEHQYNYSQPSATGYMWNKYIDYSVYAMNSVWDCTNDIIVFRYADVLLMKAEALLQTKGESAKEEVCNLIDQLRDRCSCGRVHRENYNSKDELMELLKNERRIELANEGLRYMDLIRWKDAEKNTIVTGVGLTGQMYGAYMRKDGVGKDDKTVDVDNTPRRYIETRYFNASKGYLFPIPQKERDLNPNLTQNPNW
# How the values were obtained:
# Experiment in all cases: glycan array binding signal (z-score within array); higher = stronger binding
# Details in all cases: glycan notation: IUPAC condensed, linker removed
# [1] = target: Fuc(a1-2)Gal6S(b1-3)GlcNAc6S
# In short: (§1)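 Glycan array binding is given as a within-array Z-score, which can be read as non-binding when negative. The arrays, 3228 of them, came from the Consortium for Functional Glycomics database and were retained only where the protein sequence was available. Z-scores were averaged across arrays of the same protein sequence at different concentrations or buffers and across linkers.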
# Fuc(a1-2)Gal6S(b1-4)Glc = target: Fuc(a1-2)Gal6S(b1-4)Glc
# In short: as §1
# [2] = target: Fuc(a1-2)Gal6S(b1-4)Glc6S
# In short: as §1
# Fuc(a1-2)[Gal(a1-3)]Gal = target: Fuc(a1-2)[Gal(a1-3)]Gal
# In short: as §1
# [3] = target: Fuc(a1-2)[Gal(a1-3)]Gal(b1-3)GalNAc
# In short: as §1
# [4] = target: Fuc(a1-2)[Gal(a1-3)]Gal(b1-3)GalNAc(b1-3)Gal(a1-4)Gal(b1-4)Glc
# In short: as §1
# [5] = target: Fuc(a1-2)[Gal(a1-3)]Gal(b1-3)GlcNAc
# In short: as §1
# [6] = target: Fuc(a1-2)[Gal(a1-3)]Gal(b1-3)GlcNAc(b1-2)Man(a1-3)[Fuc(a1-2)[Gal(a1-3)]Gal(b1-3)GlcNAc(b1-2)Man(a1-6)]Man(b1-4)GlcNAc(b1-4)GlcNAc
# In short: as §1
# [7] = target: Fuc(a1-2)[Gal(a1-3)]Gal(b1-3)GlcNAc(b1-2)Man(a1-3)[Fuc(a1-2)[Gal(a1-3)]Gal(b1-3)GlcNAc(b1-2)Man(a1-6)]Man(b1-4)GlcNAc(b1-4)[Fuc(a1-6)]GlcNAc
# In short: as §1
# [8] = target: Fuc(a1-2)[Gal(a1-3)]Gal(b1-3)GlcNAc(b1-3)GalNAc
# In short: as §1
# [9] = target: Fuc(a1-2)[Gal(a1-3)]Gal(b1-3)GlcNAc(b1-6)GalNAc
# In short: as §1
# [10] = target: Fuc(a1-2)[Gal(a1-3)]Gal(b1-4)Glc
# In short: as §1
# [11] = target: Fuc(a1-2)[Gal(a1-3)]Gal(b1-4)GlcNAc
# In short: as §1
# [12] = target: Fuc(a1-2)[Gal(a1-3)]Gal(b1-4)GlcNAc(b1-2)Man
# In short: as §1
# [13] = target: Fuc(a1-2)[Gal(a1-3)]Gal(b1-4)GlcNAc(b1-2)Man(a1-3)[Fuc(a1-2)[Gal(a1-3)]Gal(b1-4)GlcNAc(b1-2)Man(a1-6)]Man(b1-4)GlcNAc(b1-4)GlcNAc
# In short: as §1
# [14] = target: Fuc(a1-2)[Gal(a1-3)]Gal(b1-4)GlcNAc(b1-2)Man(a1-3)[Fuc(a1-2)[Gal(a1-3)]Gal(b1-4)GlcNAc(b1-2)Man(a1-6)]Man(b1-4)GlcNAc(b1-4)[Fuc(a1-6)]GlcNAc
# In short: as §1
# [15] = target: Fuc(a1-2)[Gal(a1-3)]Gal(b1-4)GlcNAc(b1-3)GalNAc
# In short: as §1
# [16] = target: Fuc(a1-2)[Gal(a1-3)]Gal(b1-4)GlcNAc(b1-3)[Fuc(a1-2)[Gal(a1-3)]Gal(b1-4)GlcNAc(b1-6)]GalNAc
# In short: as §1
# [17] = target: Fuc(a1-2)[Gal(a1-3)]Gal(b1-4)GlcNAc(b1-6)GalNAc
# In short: as §1
# [18] = target: Fuc(a1-2)[Gal(a1-3)]Gal(b1-4)[Fuc(a1-3)]Glc
# In short: as §1
# [19] = target: Fuc(a1-2)[Gal(a1-3)]Gal(b1-4)[Fuc(a1-3)]GlcNAc
# In short: as §1
# [20] = target: Fuc(a1-2)[Gal(a1-3)]Gal(b1-4)[Fuc(a1-3)]GlcNAc(b1-3)GalNAc
# In short: as §1
# [21] = target: Fuc(a1-2)[Gal(a1-4)]Gal(b1-4)GlcNAc
# In short: as §1
# [22] = target: Fuc(a1-2)[GalNAc(a1-3)]Gal
# In short: as §1
# [23] = target: Fuc(a1-2)[GalNAc(a1-3)]Gal(b1-3)GalNAc(a1-3)[Fuc(a1-2)]Gal(b1-4)GlcNAc
# In short: as §1
# [24] = target: Fuc(a1-2)[GalNAc(a1-3)]Gal(b1-3)GalNAc(b1-3)Gal(a1-4)Gal(b1-4)Glc
# In short: as §1
# [25] = target: Fuc(a1-2)[GalNAc(a1-3)]Gal(b1-3)GlcNAc
# In short: as §1
# [26] = target: Fuc(a1-2)[GalNAc(a1-3)]Gal(b1-3)GlcNAc(b1-2)Man(a1-3)[Fuc(a1-2)[GalNAc(a1-3)]Gal(b1-3)GlcNAc(b1-2)Man(a1-6)]Man(b1-4)GlcNAc(b1-4)GlcNAc
# In short: as §1
# [27] = target: Fuc(a1-2)[GalNAc(a1-3)]Gal(b1-3)GlcNAc(b1-2)Man(a1-3)[Fuc(a1-2)[GalNAc(a1-3)]Gal(b1-3)GlcNAc(b1-2)Man(a1-6)]Man(b1-4)GlcNAc(b1-4)[Fuc(a1-6)]GlcNAc
# In short: as §1
# [28] = target: Fuc(a1-2)[GalNAc(a1-3)]Gal(b1-3)GlcNAc(b1-3)GalNAc
# In short: as §1
# [29] = target: Fuc(a1-2)[GalNAc(a1-3)]Gal(b1-3)GlcNAc(b1-6)GalNAc
# In short: as §1
# [30] = target: Fuc(a1-2)[GalNAc(a1-3)]Gal(b1-4)Glc
# In short: as §1
# [31] = target: Fuc(a1-2)[GalNAc(a1-3)]Gal(b1-4)GlcNAc
# In short: as §1
# [32] = target: Fuc(a1-2)[GalNAc(a1-3)]Gal(b1-4)GlcNAc(b1-2)Man
# In short: as §1
# [33] = target: Fuc(a1-2)[GalNAc(a1-3)]Gal(b1-4)GlcNAc(b1-2)Man(a1-3)[Fuc(a1-2)[GalNAc(a1-3)]Gal(b1-4)GlcNAc(b1-2)Man(a1-6)]Man(b1-4)GlcNAc(b1-4)GlcNAc
# In short: as §1
# [34] = target: Fuc(a1-2)[GalNAc(a1-3)]Gal(b1-4)GlcNAc(b1-2)Man(a1-3)[Fuc(a1-2)[GalNAc(a1-3)]Gal(b1-4)GlcNAc(b1-2)Man(a1-6)]Man(b1-4)GlcNAc(b1-4)[Fuc(a1-6)]GlcNAc
# In short: as §1
# [35] = target: Fuc(a1-2)[GalNAc(a1-3)]Gal(b1-4)GlcNAc(b1-3)Gal(b1-4)GlcNAc
# In short: as §1
# [36] = target: Fuc(a1-2)[GalNAc(a1-3)]Gal(b1-4)GlcNAc(b1-3)Gal(b1-4)GlcNAc(b1-3)Gal(b1-4)GlcNAc
# In short: as §1
# [37] = target: Fuc(a1-2)[GalNAc(a1-3)]Gal(b1-4)GlcNAc(b1-3)GalNAc
# In short: as §1
# [38] = target: Fuc(a1-2)[GalNAc(a1-3)]Gal(b1-4)GlcNAc(b1-3)[Fuc(a1-2)[GalNAc(a1-3)]Gal(b1-4)GlcNAc(b1-6)]GalNAc
# In short: as §1
# [39] = target: Fuc(a1-2)[GalNAc(a1-3)]Gal(b1-4)GlcNAc(b1-6)GalNAc
# In short: as §1
# [40] = target: Fuc(a1-2)[GalNAc(a1-3)]Gal(b1-4)[Fuc(a1-3)]GlcNAc
# In short: as §1
# [41] = target: Fuc(a1-2)[GalNAc(a1-3)]Gal(b1-4)[Fuc(a1-3)]GlcNAc(b1-3)GalNAc
# In short: as §1
# [42] = target: Fuc(a1-2)[GalNAc(a1-4)]Gal(b1-4)GlcNAc
# In short: as §1
# [43] = target: Fuc(a1-2)[GalNAc(b1-3)]Gal
# In short: as §1
binder,measurement,setting,value
B1,glycan array binding signal (z-score),[1],1.48
same,glycan array binding signal (z-score),Fuc(a1-2)Gal6S(b1-4)Glc,-0.173
same,glycan array binding signal (z-score),[2],0.012
same,glycan array binding signal (z-score),Fuc(a1-2)[Gal(a1-3)]Gal,0.618
same,glycan array binding signal (z-score),[3],0.323
same,glycan array binding signal (z-score),[4],0.051
same,glycan array binding signal (z-score),[5],-0.317
same,glycan array binding signal (z-score),[6],1.27
same,glycan array binding signal (z-score),[7],0.655
same,glycan array binding signal (z-score),[8],-0.362
same,glycan array binding signal (z-score),[9],0.287
same,glycan array binding signal (z-score),[10],-0.458
same,glycan array binding signal (z-score),[11],-0.1
same,glycan array binding signal (z-score),[12],-0.421
same,glycan array binding signal (z-score),[13],1.23
same,glycan array binding signal (z-score),[14],-0.217
same,glycan array binding signal (z-score),[15],-0.274
same,glycan array binding signal (z-score),[16],-0.018
same,glycan array binding signal (z-score),[17],-0.68
same,glycan array binding signal (z-score),[18],0.072
same,glycan array binding signal (z-score),[19],-0.524
same,glycan array binding signal (z-score),[20],0.15
same,glycan array binding signal (z-score),[21],1.24
same,glycan array binding signal (z-score),[22],0.005
same,glycan array binding signal (z-score),[23],-0.953
same,glycan array binding signal (z-score),[24],0.449
same,glycan array binding signal (z-score),[25],-0.441
same,glycan array binding signal (z-score),[26],-0.384
same,glycan array binding signal (z-score),[27],0.403
same,glycan array binding signal (z-score),[28],0.067
same,glycan array binding signal (z-score),[29],-0.2
same,glycan array binding signal (z-score),[30],-0.591
same,glycan array binding signal (z-score),[31],0.215
same,glycan array binding signal (z-score),[32],0.033
same,glycan array binding signal (z-score),[33],1.03
same,glycan array binding signal (z-score),[34],-0.296
same,glycan array binding signal (z-score),[35],-0.718
same,glycan array binding signal (z-score),[36],0.611
same,glycan array binding signal (z-score),[37],-0.295
same,glycan array binding signal (z-score),[38],0.257
same,glycan array binding signal (z-score),[39],-0.301
same,glycan array binding signal (z-score),[40],0.762
same,glycan array binding signal (z-score),[41],0.453
same,glycan array binding signal (z-score),[42],0.081
same,glycan array binding signal (z-score),[43],-0.11

# As a short view, some entries already given:
binder,measurement,setting,value
B1,glycan array binding signal (z-score),[9],0.287
same,glycan array binding signal (z-score),[10],-0.458
same,glycan array binding signal (z-score),[11],-0.1
same,glycan array binding signal (z-score),[12],-0.421
same,glycan array binding signal (z-score),[13],1.23
same,glycan array binding signal (z-score),[14],-0.217
same,glycan array binding signal (z-score),[15],-0.274
same,glycan array binding signal (z-score),[16],-0.018
same,glycan array binding signal (z-score),[17],-0.68
